Laboratory results from the supplement of paper PMC10849652.
Some of the results follow.

Chains of the proteins cited; added tags and fusions are not shown. Lines headed by an entry give the natural chain unless they say otherwise; changes in a name come on top.
UniProt Q92793, whole entry, looked up: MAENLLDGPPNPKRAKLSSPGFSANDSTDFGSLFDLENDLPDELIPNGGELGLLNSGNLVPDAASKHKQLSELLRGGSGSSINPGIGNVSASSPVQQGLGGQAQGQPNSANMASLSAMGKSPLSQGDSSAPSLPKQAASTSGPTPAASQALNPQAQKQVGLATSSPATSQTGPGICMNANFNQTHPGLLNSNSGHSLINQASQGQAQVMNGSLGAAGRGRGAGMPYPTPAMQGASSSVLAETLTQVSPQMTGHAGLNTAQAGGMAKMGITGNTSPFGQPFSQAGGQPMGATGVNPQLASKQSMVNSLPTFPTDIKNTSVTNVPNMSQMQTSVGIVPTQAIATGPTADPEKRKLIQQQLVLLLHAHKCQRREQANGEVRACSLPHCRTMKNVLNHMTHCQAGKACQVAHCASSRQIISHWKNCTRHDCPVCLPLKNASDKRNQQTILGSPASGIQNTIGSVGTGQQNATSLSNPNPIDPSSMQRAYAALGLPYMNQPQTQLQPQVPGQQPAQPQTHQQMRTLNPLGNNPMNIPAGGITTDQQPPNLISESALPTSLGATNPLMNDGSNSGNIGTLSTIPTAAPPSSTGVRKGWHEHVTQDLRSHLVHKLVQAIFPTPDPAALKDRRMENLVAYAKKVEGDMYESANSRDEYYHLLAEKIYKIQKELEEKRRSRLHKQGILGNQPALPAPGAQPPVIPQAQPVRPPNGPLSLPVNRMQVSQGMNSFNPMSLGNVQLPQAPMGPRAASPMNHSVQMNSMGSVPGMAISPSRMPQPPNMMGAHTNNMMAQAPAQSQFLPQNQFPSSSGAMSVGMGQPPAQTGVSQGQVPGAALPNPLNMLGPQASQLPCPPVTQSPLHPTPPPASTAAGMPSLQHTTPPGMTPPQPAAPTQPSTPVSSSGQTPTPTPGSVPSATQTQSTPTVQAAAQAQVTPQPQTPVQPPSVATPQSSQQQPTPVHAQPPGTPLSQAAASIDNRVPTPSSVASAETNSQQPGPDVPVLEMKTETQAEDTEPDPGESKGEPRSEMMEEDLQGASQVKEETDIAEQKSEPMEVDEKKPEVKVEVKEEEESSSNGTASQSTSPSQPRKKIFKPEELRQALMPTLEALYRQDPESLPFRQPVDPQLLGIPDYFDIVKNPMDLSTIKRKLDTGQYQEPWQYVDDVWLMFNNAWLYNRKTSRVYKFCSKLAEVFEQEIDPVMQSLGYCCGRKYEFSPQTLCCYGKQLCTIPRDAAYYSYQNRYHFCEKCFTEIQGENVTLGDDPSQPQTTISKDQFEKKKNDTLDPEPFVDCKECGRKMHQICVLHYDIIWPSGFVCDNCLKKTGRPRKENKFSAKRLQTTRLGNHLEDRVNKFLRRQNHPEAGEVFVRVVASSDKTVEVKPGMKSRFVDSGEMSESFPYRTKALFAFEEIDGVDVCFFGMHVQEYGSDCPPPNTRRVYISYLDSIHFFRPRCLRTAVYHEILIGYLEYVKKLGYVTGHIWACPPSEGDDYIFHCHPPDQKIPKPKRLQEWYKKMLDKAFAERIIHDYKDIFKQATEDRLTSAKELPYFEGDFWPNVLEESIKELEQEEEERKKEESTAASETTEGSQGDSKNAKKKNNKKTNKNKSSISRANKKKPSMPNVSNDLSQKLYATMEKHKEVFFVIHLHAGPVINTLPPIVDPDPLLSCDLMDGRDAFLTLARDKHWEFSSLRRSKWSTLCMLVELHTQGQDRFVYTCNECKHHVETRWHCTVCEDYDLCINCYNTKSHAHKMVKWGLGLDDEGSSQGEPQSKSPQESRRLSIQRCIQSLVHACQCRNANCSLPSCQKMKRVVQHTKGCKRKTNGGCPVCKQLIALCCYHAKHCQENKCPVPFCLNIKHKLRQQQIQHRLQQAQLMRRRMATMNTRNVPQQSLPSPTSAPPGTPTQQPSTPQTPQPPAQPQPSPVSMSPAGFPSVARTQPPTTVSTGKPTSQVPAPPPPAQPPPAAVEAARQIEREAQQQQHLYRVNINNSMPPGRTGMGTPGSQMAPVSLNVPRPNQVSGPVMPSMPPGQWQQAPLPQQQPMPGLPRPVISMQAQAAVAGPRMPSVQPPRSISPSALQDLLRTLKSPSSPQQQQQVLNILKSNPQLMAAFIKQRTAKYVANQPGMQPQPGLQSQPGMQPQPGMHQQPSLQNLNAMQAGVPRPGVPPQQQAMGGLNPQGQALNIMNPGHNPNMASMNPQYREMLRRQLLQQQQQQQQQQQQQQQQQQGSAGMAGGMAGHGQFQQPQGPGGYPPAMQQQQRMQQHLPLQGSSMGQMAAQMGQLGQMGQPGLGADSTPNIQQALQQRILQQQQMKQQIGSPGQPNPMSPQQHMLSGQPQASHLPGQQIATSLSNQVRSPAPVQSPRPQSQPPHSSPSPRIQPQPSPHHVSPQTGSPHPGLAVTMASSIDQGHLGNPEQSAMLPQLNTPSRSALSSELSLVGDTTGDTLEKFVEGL
UniProt P17812: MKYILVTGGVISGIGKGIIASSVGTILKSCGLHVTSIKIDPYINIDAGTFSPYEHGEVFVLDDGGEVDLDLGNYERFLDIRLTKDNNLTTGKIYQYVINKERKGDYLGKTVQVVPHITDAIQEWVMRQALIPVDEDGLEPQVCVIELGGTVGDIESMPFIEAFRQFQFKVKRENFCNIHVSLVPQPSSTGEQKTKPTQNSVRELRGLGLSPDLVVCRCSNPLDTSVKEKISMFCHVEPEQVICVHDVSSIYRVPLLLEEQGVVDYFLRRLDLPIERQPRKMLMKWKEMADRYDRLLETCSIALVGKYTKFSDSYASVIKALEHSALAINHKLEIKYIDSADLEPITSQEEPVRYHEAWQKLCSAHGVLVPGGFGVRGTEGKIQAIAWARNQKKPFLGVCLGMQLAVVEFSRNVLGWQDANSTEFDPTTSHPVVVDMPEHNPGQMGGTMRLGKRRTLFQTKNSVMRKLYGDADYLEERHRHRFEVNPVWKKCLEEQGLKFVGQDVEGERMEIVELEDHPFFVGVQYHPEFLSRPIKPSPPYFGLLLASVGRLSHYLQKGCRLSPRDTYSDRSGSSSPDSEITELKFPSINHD
UniProt P33240: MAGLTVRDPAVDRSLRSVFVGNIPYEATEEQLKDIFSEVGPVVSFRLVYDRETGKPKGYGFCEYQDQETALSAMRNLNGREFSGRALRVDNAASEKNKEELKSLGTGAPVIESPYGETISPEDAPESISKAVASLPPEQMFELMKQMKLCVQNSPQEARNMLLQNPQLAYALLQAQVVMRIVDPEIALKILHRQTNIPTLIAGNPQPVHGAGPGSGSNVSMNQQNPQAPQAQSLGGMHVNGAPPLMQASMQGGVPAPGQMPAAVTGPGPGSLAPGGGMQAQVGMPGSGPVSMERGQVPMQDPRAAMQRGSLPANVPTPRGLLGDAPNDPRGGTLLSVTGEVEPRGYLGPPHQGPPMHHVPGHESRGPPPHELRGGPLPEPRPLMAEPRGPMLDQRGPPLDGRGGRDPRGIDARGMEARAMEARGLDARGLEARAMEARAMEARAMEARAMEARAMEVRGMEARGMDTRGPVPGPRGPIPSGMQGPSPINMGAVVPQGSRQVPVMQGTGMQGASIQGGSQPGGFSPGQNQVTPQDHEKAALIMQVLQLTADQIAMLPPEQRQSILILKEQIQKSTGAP
UniProt O75390: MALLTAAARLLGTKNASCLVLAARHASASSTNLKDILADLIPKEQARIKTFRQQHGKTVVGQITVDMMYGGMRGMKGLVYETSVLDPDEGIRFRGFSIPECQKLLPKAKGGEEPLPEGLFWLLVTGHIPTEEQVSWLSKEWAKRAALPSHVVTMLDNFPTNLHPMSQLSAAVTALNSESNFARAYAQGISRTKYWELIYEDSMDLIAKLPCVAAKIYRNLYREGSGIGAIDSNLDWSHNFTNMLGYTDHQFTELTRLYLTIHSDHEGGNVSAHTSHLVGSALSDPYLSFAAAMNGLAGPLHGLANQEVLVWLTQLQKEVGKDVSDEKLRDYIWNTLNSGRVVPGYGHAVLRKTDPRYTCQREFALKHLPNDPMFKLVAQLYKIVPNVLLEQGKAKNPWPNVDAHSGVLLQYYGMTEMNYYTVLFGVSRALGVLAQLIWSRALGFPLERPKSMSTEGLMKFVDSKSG
UniProt P21291: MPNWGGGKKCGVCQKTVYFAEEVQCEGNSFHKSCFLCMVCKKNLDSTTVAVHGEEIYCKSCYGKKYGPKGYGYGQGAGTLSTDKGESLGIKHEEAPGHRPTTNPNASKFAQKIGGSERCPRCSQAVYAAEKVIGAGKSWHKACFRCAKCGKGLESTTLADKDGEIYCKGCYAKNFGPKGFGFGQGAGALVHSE
UniProt Q6UX04: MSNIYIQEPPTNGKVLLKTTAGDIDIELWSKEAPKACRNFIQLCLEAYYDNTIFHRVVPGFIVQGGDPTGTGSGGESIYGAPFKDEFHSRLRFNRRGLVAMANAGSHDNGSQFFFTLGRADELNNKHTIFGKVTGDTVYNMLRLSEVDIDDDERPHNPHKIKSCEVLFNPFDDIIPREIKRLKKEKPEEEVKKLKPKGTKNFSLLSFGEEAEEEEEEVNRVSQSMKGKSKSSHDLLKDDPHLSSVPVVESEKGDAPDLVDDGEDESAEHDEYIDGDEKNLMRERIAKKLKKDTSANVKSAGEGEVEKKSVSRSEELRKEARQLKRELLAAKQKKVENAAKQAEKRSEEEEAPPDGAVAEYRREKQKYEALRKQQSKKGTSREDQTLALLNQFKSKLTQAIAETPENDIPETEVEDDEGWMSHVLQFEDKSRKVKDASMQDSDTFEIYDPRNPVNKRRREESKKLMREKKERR
UniProt O43169: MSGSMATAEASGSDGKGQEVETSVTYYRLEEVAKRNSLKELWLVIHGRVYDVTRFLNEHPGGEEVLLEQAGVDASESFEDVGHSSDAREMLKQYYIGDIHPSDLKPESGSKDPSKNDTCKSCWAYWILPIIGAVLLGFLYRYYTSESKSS
UniProt Q14247: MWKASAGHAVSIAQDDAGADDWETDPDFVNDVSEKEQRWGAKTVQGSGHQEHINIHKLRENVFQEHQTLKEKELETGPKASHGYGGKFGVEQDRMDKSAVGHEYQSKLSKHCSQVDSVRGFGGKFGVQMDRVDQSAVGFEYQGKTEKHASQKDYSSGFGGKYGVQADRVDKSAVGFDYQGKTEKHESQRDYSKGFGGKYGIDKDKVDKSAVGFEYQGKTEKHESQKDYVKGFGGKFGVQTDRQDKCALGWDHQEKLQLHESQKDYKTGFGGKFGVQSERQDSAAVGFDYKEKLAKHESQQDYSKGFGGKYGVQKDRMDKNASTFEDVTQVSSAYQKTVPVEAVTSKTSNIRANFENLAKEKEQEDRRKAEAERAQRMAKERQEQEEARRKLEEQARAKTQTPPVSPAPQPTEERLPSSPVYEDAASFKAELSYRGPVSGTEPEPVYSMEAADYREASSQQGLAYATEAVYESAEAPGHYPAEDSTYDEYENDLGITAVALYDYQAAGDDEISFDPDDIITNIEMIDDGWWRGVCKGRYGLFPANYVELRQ
UniProt Q13620, whole entry, looked up: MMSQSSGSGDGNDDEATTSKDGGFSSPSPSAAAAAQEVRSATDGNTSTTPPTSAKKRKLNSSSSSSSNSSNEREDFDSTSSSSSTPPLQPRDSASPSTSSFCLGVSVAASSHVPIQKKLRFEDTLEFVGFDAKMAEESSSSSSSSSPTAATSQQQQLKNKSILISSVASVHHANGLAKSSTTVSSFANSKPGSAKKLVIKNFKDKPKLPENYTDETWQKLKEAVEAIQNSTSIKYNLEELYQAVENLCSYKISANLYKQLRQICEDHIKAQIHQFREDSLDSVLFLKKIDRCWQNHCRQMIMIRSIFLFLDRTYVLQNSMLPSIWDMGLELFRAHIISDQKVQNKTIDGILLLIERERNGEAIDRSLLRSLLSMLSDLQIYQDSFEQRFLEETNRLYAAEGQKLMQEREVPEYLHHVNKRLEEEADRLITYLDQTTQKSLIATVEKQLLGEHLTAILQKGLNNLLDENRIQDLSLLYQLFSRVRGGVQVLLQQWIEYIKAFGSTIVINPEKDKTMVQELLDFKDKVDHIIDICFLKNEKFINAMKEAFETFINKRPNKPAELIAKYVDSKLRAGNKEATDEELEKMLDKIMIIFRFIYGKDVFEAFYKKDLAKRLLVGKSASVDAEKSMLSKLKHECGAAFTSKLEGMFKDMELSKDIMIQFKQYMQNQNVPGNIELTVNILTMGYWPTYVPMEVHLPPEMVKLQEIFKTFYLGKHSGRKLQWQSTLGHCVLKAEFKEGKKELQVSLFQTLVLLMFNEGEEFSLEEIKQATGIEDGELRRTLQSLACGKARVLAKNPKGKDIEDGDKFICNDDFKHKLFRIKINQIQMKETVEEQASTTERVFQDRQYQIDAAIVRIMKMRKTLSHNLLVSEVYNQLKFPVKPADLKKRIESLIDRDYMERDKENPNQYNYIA
UniProt P0DMU9: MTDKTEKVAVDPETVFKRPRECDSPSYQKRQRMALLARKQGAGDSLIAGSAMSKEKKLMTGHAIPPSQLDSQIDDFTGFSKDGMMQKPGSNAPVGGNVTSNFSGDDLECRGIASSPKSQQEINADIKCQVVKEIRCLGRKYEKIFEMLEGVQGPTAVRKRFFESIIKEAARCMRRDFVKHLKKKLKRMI

Columns and labels:
Experiment in all cases: log2 fold change, soluble protein after heating vs DMSO (PISA); higher = thermal stabilisation; K562 lysate, 10 uM; active = over 0.2 and 3.5 SD of the protein, either way, in both replicates (recomputed)
[1] = compound: NCC(=O)Nc1ccc(-n2nc(C(F)(F)F)cc2-c2ccc3c(ccc4ccccc43)c2)cc1
In short: (§1)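 K562 pellets were dounce-homogenised in PBS pH 7.4 with 1 mM MgCl2, and the crude extract at 1 mg/mL protein was treated with 10 μM compound for 30 min. Aliquots were heated for 3 min across 48°C-58°C, pooled, and brought to 0.5% NP-40 at 4°C; soluble protein was the supernatant after 21,000xg for 90 min. Soluble protein was quantified by TMTpro 16plex LC-MS/MS with channel sums equalised, and reported as log2 fold change in thermal stability against DMSO controls, with values from duplicates.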

[2] = compound: O=C(CCCCCCC(=O)Nc1ccccc1)NO [vorinostat]
In short: as §1

[3] = compound: O=C(O)c1ccc2c(c1)nc(Nc1cccc(Cl)c1)c1ccncc12 [silmitasertib]
In short: as §1

[4] = compound: O=C1NC(=O)C(c2cnc3ccccn23)=C1c1cn2c3c(cc(F)cc13)CN(C(=O)N1CCCCC1)CC2
In short: as §1

[5] = compound: c1cn2cc(-c3ccc4cn[nH]c4c3)nc(Nc3ccc(N4CCOCC4)cc3)c2n1 [entospletinib]
In short: as §1

Row | Target | log2 fold change [1] | log2 fold change [2] | log2 fold change [3] | log2 fold change [4] | log2 fold change [5]
1 | CREBBP (UniProt Q92793) | inactive: 0.018 | inactive: -0.276 | inactive: 0.15 | inactive: -0.018 | inactive: 0.04
2 | CTPS1 (UniProt P17812) | inactive: -0.007 | active: 0.565 | inactive: 0.028 | inactive: -0.008 | inactive: -0.005
3 | CSTF2 (UniProt P33240) | inactive: 0.001 | inactive: 0.046 | inactive: 0.007 | inactive: 0.013 | inactive: -0.045
4 | CS (UniProt O75390) | inactive: 0.009 | inactive: 0.046 | inactive: 0.014 | inactive: -0.012 | inactive: 0.01
5 | CSTB (UniProt P04080) | inactive: -0.097 | inactive: 0.125 | inactive: -0.045 | inactive: 0.022 | inactive: -0.007
6 | CRK (UniProt P46108) | inactive: 0.023 | inactive: 0.143 | inactive: -0.029 | inactive: -0.014 | inactive: 0
7 | CTSB (UniProt P07858) | inactive: 0.004 | inactive: 0.03 | inactive: -0.027 | inactive: 0.04 | inactive: 0.001
8 | CUL3 (UniProt Q13618) | inactive: 0.01 | inactive: -0.119 | inactive: 0.023 | inactive: -0.008 | inactive: 0.006
9 | CYB5R4 (UniProt Q7L1T6) | inactive: 0.027 | inactive: -0.084 | inactive: -0.093 | inactive: -0.03 | inactive: -0.011
10 | CUTC (UniProt Q9NTM9) | inactive: -0.017 | inactive: 0.132 | inactive: -0.062 | inactive: 0 | inactive: 0.015
11 | CTBP1 (UniProt Q13363) | inactive: -0.04 | inactive: -0.198 | inactive: -0.011 | inactive: 0.031 | inactive: 0.003
12 | CRTC2 (UniProt H0YDQ8) | inactive: -0.032 |  |  |  | 
13 | CSRP1 (UniProt P21291) | inactive: 0.082 | inactive: 0.094 | inactive: -0.009 | inactive: 0.015 | inactive: -0.025
14 | CSTF1 (UniProt Q05048) | inactive: -0.002 | inactive: 0.036 | inactive: -0.033 | inactive: 0.003 | inactive: -0.027
15 | CTIF (UniProt O43310) | inactive: -0.008 |  |  |  | 
16 | CTH (UniProt P32929) | inactive: 0.059 | inactive: 0.141 | inactive: -0.052 | inactive: -0.011 | inactive: 0.02
17 | CUX1 isoform 3 (UniProt P39880) | inactive: 0.008 | inactive: 0.005 | inactive: 0.025 | inactive: -0.022 | inactive: -0.014
18 | CWC27 (UniProt Q6UX04) | inactive: 0.005 | inactive: 0.067 | inactive: -0.01 | inactive: -0.017 | inactive: 0.013
19 | CRNN (UniProt Q9UBG3) | inactive: 0.2 |  |  |  | 

Row | Target | log2 fold change [1] | log2 fold change [2] | log2 fold change [3] | log2 fold change [4] | log2 fold change [5]
20 | CYB5B (UniProt O43169) | inactive: -0.033 | inactive: 0.032 | inactive: -0.015 | inactive: -0.035 | inactive: -0.023
21 | CTBP2 isoform 2 (UniProt P56545) | inactive: 0.041 | inactive: -0.175 | inactive: -0.002 | inactive: -0.006 | inactive: 0.021
22 | CRY2 (UniProt Q49AN0) | inactive: -0.022 |  |  |  | 
23 | CWC22 (UniProt Q9HCG8) | inactive: -0.012 | inactive: -0.156 | inactive: 0.032 | inactive: -0.016 | inactive: 0.015
24 | CTPS2 (UniProt Q9NRF8) | inactive: 0.006 | active: 0.327 | inactive: 0.007 | inactive: -0.034 | inactive: 0.019
25 | CUL2 isoform 2 (UniProt Q13617) | inactive: 0.013 | inactive: 0.009 | inactive: -0.005 | inactive: -0.011 | inactive: 0.043
26 | CWF19L1 (UniProt Q69YN2) | inactive: -0.026 | inactive: -0.11 | inactive: -0.025 | inactive: -0.044 | inactive: -0.007
27 | CTTN isoform 2 (UniProt Q14247) | inactive: 0.022 | inactive: 0.102 | inactive: -0.03 | inactive: 0.015 | inactive: 0.022
28 | CYFIP1 (UniProt Q7L576) | inactive: -0.001 | inactive: -0.034 | inactive: 0.029 | inactive: -0.001 | inactive: 0.018
29 | CRPPA (UniProt A4D126) | inactive: 0.015 | inactive: 0.039 | inactive: -0.03 | inactive: -0.004 | inactive: -0.008
30 | CRYL1 (UniProt Q9Y2S2) | inactive: -0.245 | inactive: -0.271 | inactive: -0.02 | inactive: 0.116 | 
31 | CUL4B (UniProt Q13620) | inactive: -0.001 | inactive: 0.03 | inactive: -0.011 | inactive: -0.018 | inactive: 0.016
32 | CRAT (UniProt P43155) | inactive: -0.127 | inactive: -0.089 | inactive: -0.034 | inactive: -0.056 | 
33 | CYBRD1 (UniProt Q53TN4) | inactive: 0.128 | inactive: 0.078 | inactive: 0.121 | inactive: 0.017 | 
34 | CYB5R1 (UniProt Q9UHQ9) | inactive: -0.018 | inactive: -0.075 | inactive: 0.005 | inactive: -0.002 | inactive: 0.005
35 | CRYM-AS1 (UniProt A6NIL9) | inactive: 0.235 | inactive: 0.06 | inactive: 0.003 | inactive: 0.157 | inactive: -0.004
36 | CSK (UniProt P41240) | inactive: -0.008 | inactive: -0.262 | inactive: -0.006 | inactive: -0.021 | inactive: 0.195
37 | CSPG5 isoform 2 (UniProt O95196) | inactive: -0.022 | inactive: 0.269 | inactive: 0.08 | inactive: -0.01 | 
38 | CSTF3 (UniProt Q12996) | inactive: -0.056 | inactive: -0.101 | inactive: 0.017 | inactive: -0.033 | inactive: -0.008

Records 26 to 27 of the list above:
Row | Target | log2 fold change [1] | log2 fold change [2] | log2 fold change [3] | log2 fold change [4] | log2 fold change [5]
26 | CWF19L1 (UniProt Q69YN2) | inactive: -0.026 | inactive: -0.11 | inactive: -0.025 | inactive: -0.044 | inactive: -0.007
27 | CTTN isoform 2 (UniProt Q14247) | inactive: 0.022 | inactive: 0.102 | inactive: -0.03 | inactive: 0.015 | inactive: 0.022

The results go on.

Row | Target | log2 fold change [1] | log2 fold change [2] | log2 fold change [3] | log2 fold change [4] | log2 fold change [5]
39 | CYB5R3 isoform 3 (UniProt P00387) | inactive: 0.028 | inactive: 0.081 | inactive: -0.044 | inactive: 0.006 | inactive: 0.06
40 | CTU2 (UniProt Q2VPK5) | inactive: -0.018 | inactive: -0.081 | inactive: 0.021 | inactive: -0.022 | inactive: 0.006
41 | CUSTOS (UniProt Q96C57) | inactive: 0.079 | inactive: 0.079 | inactive: -0.01 | inactive: 0.052 | inactive: 0
42 | CTIF isoform 2 (UniProt O43310) | inactive: -0.05 | inactive: 0.082 | inactive: 0.038 | inactive: 0.001 | inactive: 0.063
43 | CRKL (UniProt P46109) | inactive: 0.005 | inactive: 0.121 | inactive: -0.004 | inactive: 0.024 | inactive: -0.001
44 | CT45A10 (UniProt P0DMU9) | inactive: -0.037 | inactive: 0.032 | inactive: -0.023 | inactive: -0.01 | inactive: 0.004
45 | CTSH (UniProt P09668) | inactive: 0.003 | inactive: 0.067 | inactive: -0.024 | inactive: 0.036 | inactive: 0.092
46 | CUL4A (UniProt Q13619) | inactive: -0.025 | inactive: -0.047 | inactive: 0.015 | inactive: -0.001 | inactive: -0.004
47 | CST3 (UniProt P01034) | inactive: -0.012 | inactive: 0.185 | inactive: 0.038 | inactive: -0.001 | inactive: -0.027
48 | CROCC (UniProt Q5TZA2) | inactive: 0.056 | inactive: 0.083 | inactive: 0.068 | inactive: 0.063 | inactive: -0.035
49 | CXXC1 isoform 2 (UniProt Q9P0U4) | inactive: -0.008 | inactive: -0.18 | inactive: 0.08 | inactive: 0.027 | inactive: -0.033
50 | CSNK1G3 (UniProt Q9Y6M4) | inactive: -0.004 | inactive: -0.011 | inactive: 0.055 | inactive: -0.029 | inactive: 0.039
51 | CRYZ (UniProt Q08257) | inactive: 0.002 | inactive: 0.124 | inactive: -0.022 | inactive: -0.001 | inactive: 0.022
52 | CREB1 (UniProt P16220) | inactive: -0.013 | inactive: 0.07 | inactive: -0.004 | inactive: -0.006 | inactive: 0.029
53 | CSTF2T (UniProt Q9H0L4) | inactive: 0.009 | inactive: 0.019 | inactive: -0.033 | inactive: -0.035 | inactive: -0.04
54 | CRNKL1 (UniProt Q9BZJ0) | inactive: -0.082 | inactive: -0.255 | inactive: 0.231 | inactive: -0.206 | inactive: 0.048
55 | CYC1 (UniProt P08574) | inactive: -0.074 | inactive: 0.08 | inactive: 0.021 | inactive: -0.029 | inactive: 0.003
56 | CRCP (UniProt O75575) | inactive: 0.004 | inactive: 0.072 | inactive: -0.031 | inactive: -0.029 | inactive: -0.018
